# Results deposited as PubChem BioAssay AID743454 (Peter MacCallum Cancer Centre, 2014)
# Assay: 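Search for knock-downs that restore vorinostat killing in resistant colon cancer cells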 (primary screen)
# Cell system: human HCT116-VR colon cancer cells, selected for vorinostat resistance
# Reagents: siRNA pool against human genes, 40 nM siRNA pool
# Time to read-out: vorinostat for 24 h, read-out about 72 h after transfection
# Challenge: vorinostat at 2.5 µM final
# Detection: 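Cell viability by CellTiter-Fluor and caspase 3/7 activity by luminescence, each scaled to mock wells per plate, duplicates averaged, then robust z-scored over all plates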
# Scale: viability robust z-score: higher = more viable cells than screen typical; caspase robust z-score: higher = more caspase 3/7 activity than screen typical
# Rule for the call: 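Hits are knock-downs in viability class RV1/RV2 or caspase class CA1/CA2, excluding ones that killed cells in the no-drug cell-count arm; hits then retested with single siRNAs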
# The whole screen tested about 18,000 reagents; this is an unselected part. In the full data, 450 (2.5%) are marked active. 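Single biological run; no consistent viability z cut-off exists, so the class columns, not z-scores, define the calls.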 Entries without a mark were called inactive.
target gene,viability hit class,caspase hit class,viability robust z-score,caspase robust z-score
ZNF615,no change,no change,0.67,-0.18
TSPAN31,no change,no change,-0.38,-0.34
PHOX2B,no change,no change,-0.08,-0.7
FUT3,no change,no change,0.78,-0.45
TMEM222,no change,no change,0.5,-0.29
CHMP1B,no change,no change,0.44,1.21
BACH2,no change,no change,-1.58,0.57
ZNF768,no change,no change,0.48,-0.5
CSTF3,no change,no change,-0.54,0.52
ZNF333,no change,no change,0.36,-0.26
SIGLEC11,no change,no change,-0.73,1.45

2 entries from above, sorted by “viability robust z-score”, low to high.
target gene,viability hit class,caspase hit class,viability robust z-score,caspase robust z-score
PHOX2B,no change,no change,-0.08,-0.7
FUT3,no change,no change,0.78,-0.45

More reagents follow.
target gene,viability hit class,caspase hit class,viability robust z-score,caspase robust z-score
PLCD4,no change,no change,0.66,1.32
EFCAB7,no change,no change,0.8,0.88
TBCE,no change,no change,0.99,-0.97
PPP1R9A,no change,no change,1.28,-1.02
FURIN,no change,no change,0.2,-0.36
PHYHIP,no change,no change,-2.8,3.25
PRKD3,no change,no change,-0.96,1.38
DIAPH1,no change,no change,1.46,0.28
TNFAIP6,no change,no change,-0.03,-1.36
HLA-DRA,no change,no change,0.83,-0.44
LEFTY2,no change,no change,1.99,0.37
ZNF213,no change,no change,0.06,0.7
